Data from article PMC12140318.
These are yes or no findings as the source states them, for the method shown. In cells and extracts the contact can be indirect. Binding calls can cover weak binding; strength is not graded here.

Chains of the proteins cited; added tags and fusions are not shown. Lines headed by an entry give the natural chain unless they say otherwise; changes in a name come on top.
UniProt P06702: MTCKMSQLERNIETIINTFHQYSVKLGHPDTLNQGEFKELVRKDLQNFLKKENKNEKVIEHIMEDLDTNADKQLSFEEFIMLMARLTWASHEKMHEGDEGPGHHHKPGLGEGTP
UniProt P45973: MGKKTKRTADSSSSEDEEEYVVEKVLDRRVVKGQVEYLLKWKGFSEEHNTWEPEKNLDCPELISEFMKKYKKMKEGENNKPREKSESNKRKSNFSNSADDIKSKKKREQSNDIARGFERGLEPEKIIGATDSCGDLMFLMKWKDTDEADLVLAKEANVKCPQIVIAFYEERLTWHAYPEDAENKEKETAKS

Biological target: full-length S100A9 in the nucleus (pDC315-3NLS-S100A9-3NLS-3Flag) (human) (UniProt P06702)
Experiment: co-IP; 500 µg protein of hAFs with or without nuclear S100A9 or T113D mutant S100A9 overexpression in IP lysis buffer; Flag antibody-coupled beads, or antibodies against Flag, S100A9, CBX5 or MBD3 with protein A agarose, overnight at 4 °C; pre-immune rabbit IgG as negative control; Western blotting

In the case of “CBX5 (Chromobox protein homolog 5) (from UniProt P45973 1-191)”, the binding is reported as “binds”.
